Counter-ions that a name gives are not always drawn. This is one part of the list. Hit calls seldom repeat between salt and free forms of one compound.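 In K562 cells expressing nanoluciferase-fused kinases, luminescence was recorded at 4 h intervals between 2 and 18 h, normalized as percent of control with DMSO at 100% and a positive control at 0%. A significant (2 sigma) signal drop marks a time point as decreased. The authors' rule for a hit is not shown and takes in more than the number of time points.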
Each compound was assayed against ARAF (UniProt P10398) (assay: kinase-Nluc reporter destabilization hit call (1 = scored as downregulated) (binary); higher = compound decreases kinase abundance). Conditions: K562; 2-18 h.

The chains behind the UniProt entries cited, without tags or fusion partners. Where a name states a change or a piece, a line headed by the entry shows the natural chain unless it says otherwise.
UniProt P10398: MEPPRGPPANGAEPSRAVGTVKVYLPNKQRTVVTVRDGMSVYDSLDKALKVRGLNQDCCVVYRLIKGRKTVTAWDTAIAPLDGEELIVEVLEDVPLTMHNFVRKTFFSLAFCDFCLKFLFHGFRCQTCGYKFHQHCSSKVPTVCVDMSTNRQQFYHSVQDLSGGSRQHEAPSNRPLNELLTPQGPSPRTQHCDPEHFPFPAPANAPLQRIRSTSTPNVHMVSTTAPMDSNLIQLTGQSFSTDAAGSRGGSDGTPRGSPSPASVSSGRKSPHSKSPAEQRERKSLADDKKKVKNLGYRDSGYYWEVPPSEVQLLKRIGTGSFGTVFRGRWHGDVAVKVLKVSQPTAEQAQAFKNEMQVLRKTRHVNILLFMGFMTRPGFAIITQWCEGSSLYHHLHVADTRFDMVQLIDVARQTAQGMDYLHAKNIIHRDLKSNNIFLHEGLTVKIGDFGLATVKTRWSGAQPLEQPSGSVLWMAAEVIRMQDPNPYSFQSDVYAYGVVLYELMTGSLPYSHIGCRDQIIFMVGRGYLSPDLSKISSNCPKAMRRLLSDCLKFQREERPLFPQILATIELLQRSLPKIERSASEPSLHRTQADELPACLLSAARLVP

kinase-Nluc reporter destabilization hit call, inactive:
COc1cc2nccc(Oc3ccc(NC(=O)NC4CC4)c(Cl)c3)c2cc1C(N)=O [Lenvatinib] (10 µM) 0
COc1ccc2c(OCc3nnc4ccc(-c5ccccc5)nn34)ccnc2c1 (2 µM) 0
COc1cc2ncnc(Nc3ccc(Cl)cc3F)c2cc1OC (10 µM) 0
N#Cc1c(C2CCNCC2)cc(-c2c(O)cccc2OCC2CC2)nc1N [ACHP (Hydrochloride)] (10 µM) 0
CNC(=O)c1c(F)cccc1Nc1nc(Nc2cc3c(cc2OC)CCN3C(=O)CN(C)C)nc2[nH]ccc12 (10 µM) 0
COc1cc2c(N3CCN(C(=O)Nc4ccc(OC(C)C)cc4)CC3)ncnc2cc1OCCCN1CCCCC1 [Tandutinib (hydrochloride)] (10 µM) 0
CN1CCN(c2cccc(Nc3nc4c(-c5ccc(S(C)(=O)=O)cc5)cccn4n3)c2)CC1 (10 µM) 0
Cn1cc(-c2ccc3c(c2)CCN3C(=O)Cc2cccc(C(F)(F)F)c2)c2c(N)ncnc21 (2.5 µM) 0
O=Nc1c(-c2c(O)[nH]c3ccc(F)cc23)[nH]c2ccccc12 [5'-Fluoroindirubinoxime] (10 µM) 0
C=C(CC[C@@H](C(=O)O)[C@H]1[C@H](O)C[C@@]2(C)C3=C(CC[C@]12C)[C@@]1(C)CC[C@H](OC(C)=O)C(C)(C)[C@@H]1CC3)C(C)C [Pachymic acid] (10 µM) 0
Cc1cc(Nc2ncnc3ccc(NC4=NC(C)(C)CO4)cc23)ccc1Oc1ccn2ncnc2c1 [Tucatinib] (2.5 µM) 0
CCNc1nc(Nc2cc(F)c(C(=O)N3CCOCC3)cc2OC)ncc1C(F)(F)F [GNE-7915 (tosylate)] (10 µM) 0
Cc1ccc(C(=O)Nc2ccc(Oc3cc4cnn(C)c4cc3-c3cn[nH]c3)c(F)c2)c(=O)n1-c1ccc(F)cc1 [Merestinib dihydrochloride] (2.5 µM) 0
Nc1ncnc2c1c(-c1cccc(OCc3ccccc3)c1)cn2C1CC(CN2CCC2)C1 (centres undefined) (2.5 µM) 0
Cn1cnc2c(F)c(Nc3ccc(Br)cc3Cl)c(C(=O)NOCCO)cc21 [Selumetinib (sulfate)] (10 µM) 0
Cc1cc(Nc2ncnc3ccc(NC4=NC(C)(C)CO4)cc23)ccc1Oc1ccn2ncnc2c1 [Tucatinib (hemiethanolate)] (2.5 µM) 0
Cc1cc2ncc(-c3ccc(O)c(O)c3)nc2cc1C [Tyrphostin AG1433] (10 µM) 0
CCN1CCN(Cc2ccc(Nc3ncc(F)c(-c4cc(F)c5nc(C)n(C(C)C)c5c4)n3)nc2)CC1 [Abemaciclib (methanesulfonate)] (10 µM) 0
Cn1cnc2c(F)c(Nc3ccc(Br)cc3Cl)c(C(=O)NOCCO)cc21 [Selumetinib] (10 µM) 0
S=C(SSC(=S)N1CCOCC1)N1CCOCC1 (10 µM) 0
Cn1nccc1Nc1nccc(-c2ccn([C@H](CO)c3ccc(Cl)c(F)c3)c(=O)c2)n1 [Ravoxertinib hydrochloride] (10 µM) 0
Cc1ccc(C(=O)Nc2ccc(Oc3cc4cnn(C)c4cc3-c3cn[nH]c3)c(F)c2)c(=O)n1-c1ccc(F)cc1 [Merestinib] (2.5 µM) 0
c1ccc(-c2[nH]ncc2-c2ccnc3ccccc23)nc1 (10 µM) 0
O=C(CSC1=NCCN1)NC1CCCCCC1 [ICCB-19 (hydrochloride)] (2.5 µM) 0
Cn1cc(-c2cnn3c(N)c(Br)c([C@@H]4CCCNC4)nc23)cn1 (2.5 µM) 0
O=C(Nc1cn[nH]c1-c1ccccn1)c1nn(C2CCNCC2)cc1Cl (10 µM) 0
Cc1nc(-c2cn3c(n2)-c2ccc(-c4cnn(C(C)(C)C(N)=O)c4)cc2OCC3)n(C(C)C)n1 [Taselisib] (10 µM) 0
O=C(NCCN1CCOCC1)c1cc2c(Oc3ccc(NC(=O)C4(C(=O)Nc5ccc(F)cc5)CC4)cc3)ccnc2[nH]1 [Tyrosine kinase inhibitor] (10 µM) 0
CN(CC(=O)N(Cc1ccc(C2CCCCC2)cc1)c1ccc(C(=O)NO)cc1)S(=O)(=O)c1c(F)c(F)c(F)c(F)c1F (2.5 µM) 0

Pulled one by one from the entries so far (2):
kinase-Nluc reporter destabilization hit call, inactive:
Cc1cc(Nc2ncnc3ccc(NC4=NC(C)(C)CO4)cc23)ccc1Oc1ccn2ncnc2c1 [Tucatinib] (2.5 µM) 0
COc1ccc2c(OCc3nnc4ccc(-c5ccccc5)nn34)ccnc2c1 (2 µM) 0

Source: the supplement of paper PMC12823440, “Inhibitors supercharge kinase turnover through native proteolytic circuits” (Nature, 2025)
